Test results as given in patent US20140308201A1.
Results are given in words; binding and its absence hold for the method and conditions named. For part of these data: A result given as binding can be weak or reduced; the word gives no strength.

Columns and labels:
[1] = target: Human FGFR1 IIIb D1-3 (human); assay: SPR Biacore, IgG captured via anti-human Fc
[2] = target: Human FGFR3 IIIb D1-3 (human); assay: SPR Biacore, IgG captured via anti-human Fc
[3] = target: Human FGFR2 IIIb D1-3 (human); assay: SPR Biacore
[4] = target: Mouse FGFR2 IIIb D1-3 (mouse); assay: SPR Biacore
[5] = target: Rat FGFR2 IIIb D1-3 (rat); assay: SPR Biacore
[6] = target: Human FGFR2 IIIb D1-3 (human); assay: screening of panning outputs for specificity and cross-reactivity (assays of Example 1)
[7] = target: Human FGFR2 IIIc D1-3 (human); assay: as above

B1: mAb12422 (antibody, human IgG1, kappa, V domains shown)
VH: QVQLVQSGAEVKKPGSSVKVSCKASGGTFSSYAISWVRQAPGQGLEWMGYISPYMGETHYAQKFQGRVTITADESTSTAYMELSSLRSEDTAVYYCARESYEYFDIWGQGTLVTVSS
VL: DIQMTQSPSSLSASVGDRVTITCRASQSISNDLAWYQQKPGKAPKLLIYATSILQSGVPSRFSGSGSGTDFTLTISSLQPEDFATYYCLQYYDYSYTFGQGTKVEIKR
- binding [1]: no binding (tested: 0.078-100 nM FGFR injected)
- binding [2]: no binding (tested: 0.078-100 nM FGFR injected)
- binding [3]: binds
- binding [4]: binds
- binding [5]: binds
- binding [6]: binds
- binding [7]: binds

B2: mAb12439 (antibody, human IgG1, kappa, V domains shown)
VH: QVQLVQSGAEVKKPGASVKVSCKASGYTFTSYDISWVRQAPGQGLEWMGWINPYNGGTNYAQKFQGRVTMTRDTSISTAYMELSRLRSEDTAVYYCAREGSGMIVYPGWSYAFDYWGQGTLVTVSS
VL: DIQMTQSPSSLSASVGDRVTITCRASQDISNDLGWYQQKPGKAPKLLIYAASSLQSGVPSRFSGSGSGTDFTLTISSLQPEDFATYYCQQHYHTPNTFGQGTKVEIKR
- binding [1]: no binding (tested: 0.078-100 nM FGFR injected)
- binding [2]: no binding (tested: 0.078-100 nM FGFR injected)
- binding [3]: binds
- binding [4]: binds
- binding [5]: binds
- binding [6]: binds
- binding [7]: binds

B3: mAb12433 (antibody, human IgG1, kappa, V domains shown)
VH: QVQLVQSGAEVKKPGESLKISCKGSGYSFTNYYIHWVRQMPGKGLEWMGAIYPDNSDTTYSPSFQGQVTISADKSISTAYLQWSSLKASDTAMYYCARGADIWGQGTLVTVSS
VL: DIQMTQSPSSLSASVGDRVTITCRASQDIDPYLSNWYQQKPGKAPKLLIYDASNLQSGVPSRFSGSGSGTDFTLTISSLQPEDFATYYCQQTTSHPYTFGQGTKVEIKR
- binding [1]: no binding (tested: 0.078-100 nM FGFR injected)
- binding [2]: no binding (tested: 0.078-100 nM FGFR injected)
- binding [3]: binds
- binding [4]: binds
- binding [5]: binds
- binding [6]: binds

B4: mAb11725 (antibody, human IgG1, lambda, V domains shown)
VH: QVQLLESGGGLVQPGGSLRLSCAASGFTFNTYWLHWVRQAPGKGLEWVSVISSDSSSTYYADSVKGRFTISRDNSKNTLYLQMNSLRAEDTAVYYCARDSRLDYWGQGTLVTVSS
VL: DIELTQPPSVSVSPGQTASITCSGDSIGDTYVDWYQQKPGQAPVLVIYDDIDRPSGIPERFSGSNSGNTATLTISGTQAEDEADYYCYVYAWTGTSNVFGGGTKLTVLG
- binding [1]: no binding (tested: 0.078-100 nM FGFR injected)
- binding [2]: no binding (tested: 0.078-100 nM FGFR injected)
- binding [3]: binds
- binding [4]: binds
- binding [5]: binds
- binding [6]: binds
- binding [7]: binds
